Test results from patent publication US20100209931A1, “Compositions for Identifying Novel Compositions for the Treatment of Disease and Methods of Using Same” (priority 2009, published 2010).
For at least one compound, name, drawing or mass did not settle the structure.

Legend:
[1] = tested on: ira2Δ haploid cells; assay: agar adherence of ira2Δ haploid cells; conditions: rapamycin 10-50 nM
[2] = tested on: slt2Δ cells; conditions: cited from earlier work

CO[C@H]1C[C@@H]2CC[C@@H](C)[C@@](O)(O2)C(=O)C(=O)N2CCCC[C@H]2C(=O)O[C@H]([C@H](C)C[C@@H]2CC[C@@H](O)[C@H](OC)C2)CC(=O)[C@H](C)/C=C(\C)[C@@H](O)[C@@H](OC)C(=O)[C@H](C)C[C@H](C)/C=C/C=C/C=C/1C [rapamycin]
adherent growth to agar [1]: blocked adherent growth | sensitivity of slt2Δ cells [2]: sensitive
